Test results published in the supplement of paper PMC11732987, “Enantioselective OTUD7B fragment discovery through chemoproteomics screening and high-throughput optimisation” (Communications Chemistry, 2025).
Some of the results follow. The data scatter; read single values as rough.

By UniProt entry, the sequences of proteins in these tests, tags left out. Where a name states a change or a piece, a line headed by the entry shows the natural chain unless it says otherwise. Residues count along the entry.
UniProt Q02040: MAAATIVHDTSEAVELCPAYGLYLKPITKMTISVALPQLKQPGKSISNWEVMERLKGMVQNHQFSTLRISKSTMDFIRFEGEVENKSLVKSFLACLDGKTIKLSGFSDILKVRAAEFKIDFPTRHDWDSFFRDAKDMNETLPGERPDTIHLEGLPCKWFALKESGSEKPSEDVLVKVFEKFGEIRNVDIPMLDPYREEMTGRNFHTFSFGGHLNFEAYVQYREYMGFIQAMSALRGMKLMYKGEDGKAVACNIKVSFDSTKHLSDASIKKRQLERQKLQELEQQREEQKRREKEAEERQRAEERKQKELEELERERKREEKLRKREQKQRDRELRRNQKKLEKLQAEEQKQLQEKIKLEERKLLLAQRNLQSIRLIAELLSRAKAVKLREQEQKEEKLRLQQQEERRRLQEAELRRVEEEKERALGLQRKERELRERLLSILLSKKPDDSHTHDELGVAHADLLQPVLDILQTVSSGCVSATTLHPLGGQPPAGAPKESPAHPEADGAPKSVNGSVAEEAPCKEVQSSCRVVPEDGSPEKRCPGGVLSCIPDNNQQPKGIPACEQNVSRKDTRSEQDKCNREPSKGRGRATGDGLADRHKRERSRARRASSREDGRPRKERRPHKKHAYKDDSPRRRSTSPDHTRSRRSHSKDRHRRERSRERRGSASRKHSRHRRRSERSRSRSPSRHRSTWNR
UniProt Q12802: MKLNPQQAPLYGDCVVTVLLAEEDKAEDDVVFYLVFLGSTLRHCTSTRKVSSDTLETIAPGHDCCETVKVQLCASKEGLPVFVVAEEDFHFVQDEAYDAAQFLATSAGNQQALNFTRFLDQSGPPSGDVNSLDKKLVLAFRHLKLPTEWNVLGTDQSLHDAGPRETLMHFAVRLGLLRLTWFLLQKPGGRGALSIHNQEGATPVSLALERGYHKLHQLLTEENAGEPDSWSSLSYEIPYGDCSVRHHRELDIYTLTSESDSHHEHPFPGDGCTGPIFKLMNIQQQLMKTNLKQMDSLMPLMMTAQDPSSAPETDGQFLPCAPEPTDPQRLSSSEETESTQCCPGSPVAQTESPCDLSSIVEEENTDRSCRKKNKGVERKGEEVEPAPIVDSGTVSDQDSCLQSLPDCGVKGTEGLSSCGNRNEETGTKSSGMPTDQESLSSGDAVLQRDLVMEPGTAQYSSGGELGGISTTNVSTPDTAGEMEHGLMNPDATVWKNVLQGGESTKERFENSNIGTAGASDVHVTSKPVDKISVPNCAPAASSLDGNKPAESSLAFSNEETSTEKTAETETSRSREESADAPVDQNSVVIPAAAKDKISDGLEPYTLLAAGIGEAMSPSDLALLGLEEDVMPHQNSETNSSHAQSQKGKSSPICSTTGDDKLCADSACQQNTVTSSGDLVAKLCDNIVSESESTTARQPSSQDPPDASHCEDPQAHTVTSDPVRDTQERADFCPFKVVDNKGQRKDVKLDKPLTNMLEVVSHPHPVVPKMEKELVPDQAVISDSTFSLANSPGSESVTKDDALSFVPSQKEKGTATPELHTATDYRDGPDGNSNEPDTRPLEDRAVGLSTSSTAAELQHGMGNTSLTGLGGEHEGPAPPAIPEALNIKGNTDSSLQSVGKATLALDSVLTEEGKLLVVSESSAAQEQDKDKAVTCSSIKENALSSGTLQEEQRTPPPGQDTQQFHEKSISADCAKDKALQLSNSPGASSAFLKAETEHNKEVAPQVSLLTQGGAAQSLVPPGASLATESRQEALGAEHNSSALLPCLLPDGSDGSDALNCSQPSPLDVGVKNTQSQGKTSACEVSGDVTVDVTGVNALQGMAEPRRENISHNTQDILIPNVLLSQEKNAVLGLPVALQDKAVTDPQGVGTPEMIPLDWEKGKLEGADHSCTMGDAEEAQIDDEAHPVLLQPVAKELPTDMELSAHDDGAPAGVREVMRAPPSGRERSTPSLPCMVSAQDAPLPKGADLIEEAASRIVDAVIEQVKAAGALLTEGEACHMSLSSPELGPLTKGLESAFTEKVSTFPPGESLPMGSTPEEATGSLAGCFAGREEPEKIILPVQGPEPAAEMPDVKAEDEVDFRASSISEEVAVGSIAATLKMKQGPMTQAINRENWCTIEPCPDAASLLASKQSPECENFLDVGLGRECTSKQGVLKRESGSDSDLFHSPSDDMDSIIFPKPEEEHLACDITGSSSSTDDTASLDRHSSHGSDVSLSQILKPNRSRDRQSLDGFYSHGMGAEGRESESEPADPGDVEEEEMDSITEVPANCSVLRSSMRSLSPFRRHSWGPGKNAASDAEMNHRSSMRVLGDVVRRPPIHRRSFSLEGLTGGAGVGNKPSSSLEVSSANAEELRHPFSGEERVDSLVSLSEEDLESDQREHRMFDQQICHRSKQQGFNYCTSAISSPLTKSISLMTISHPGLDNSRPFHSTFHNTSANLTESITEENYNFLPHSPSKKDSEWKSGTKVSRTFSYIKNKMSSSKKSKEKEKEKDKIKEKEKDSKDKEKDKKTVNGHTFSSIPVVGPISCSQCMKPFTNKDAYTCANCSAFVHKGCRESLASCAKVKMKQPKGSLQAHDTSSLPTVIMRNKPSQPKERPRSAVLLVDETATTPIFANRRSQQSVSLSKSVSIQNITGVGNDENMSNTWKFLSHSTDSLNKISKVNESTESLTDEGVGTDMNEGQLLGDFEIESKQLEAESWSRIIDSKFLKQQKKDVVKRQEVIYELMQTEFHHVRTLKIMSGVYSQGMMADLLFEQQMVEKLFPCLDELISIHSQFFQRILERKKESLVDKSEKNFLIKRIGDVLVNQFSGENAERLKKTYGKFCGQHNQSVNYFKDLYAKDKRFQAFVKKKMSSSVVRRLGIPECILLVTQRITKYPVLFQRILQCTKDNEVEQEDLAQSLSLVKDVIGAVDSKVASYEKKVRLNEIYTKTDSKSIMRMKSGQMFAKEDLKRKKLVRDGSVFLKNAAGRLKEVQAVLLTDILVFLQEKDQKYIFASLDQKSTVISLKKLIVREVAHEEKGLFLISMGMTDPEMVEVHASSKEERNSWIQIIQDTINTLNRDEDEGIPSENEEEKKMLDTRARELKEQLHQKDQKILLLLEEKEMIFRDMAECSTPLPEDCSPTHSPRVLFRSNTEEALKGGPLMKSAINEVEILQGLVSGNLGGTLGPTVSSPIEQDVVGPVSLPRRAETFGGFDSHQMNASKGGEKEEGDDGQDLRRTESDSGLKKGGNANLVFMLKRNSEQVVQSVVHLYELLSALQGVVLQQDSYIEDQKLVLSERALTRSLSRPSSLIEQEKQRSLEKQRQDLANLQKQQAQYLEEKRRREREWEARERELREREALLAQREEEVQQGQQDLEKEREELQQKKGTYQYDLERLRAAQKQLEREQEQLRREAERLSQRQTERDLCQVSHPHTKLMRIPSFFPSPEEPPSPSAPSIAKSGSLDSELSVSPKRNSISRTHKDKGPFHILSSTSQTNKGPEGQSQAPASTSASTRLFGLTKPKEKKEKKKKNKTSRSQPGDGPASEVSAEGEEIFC
UniProt Q9UJX6, whole entry, looked up: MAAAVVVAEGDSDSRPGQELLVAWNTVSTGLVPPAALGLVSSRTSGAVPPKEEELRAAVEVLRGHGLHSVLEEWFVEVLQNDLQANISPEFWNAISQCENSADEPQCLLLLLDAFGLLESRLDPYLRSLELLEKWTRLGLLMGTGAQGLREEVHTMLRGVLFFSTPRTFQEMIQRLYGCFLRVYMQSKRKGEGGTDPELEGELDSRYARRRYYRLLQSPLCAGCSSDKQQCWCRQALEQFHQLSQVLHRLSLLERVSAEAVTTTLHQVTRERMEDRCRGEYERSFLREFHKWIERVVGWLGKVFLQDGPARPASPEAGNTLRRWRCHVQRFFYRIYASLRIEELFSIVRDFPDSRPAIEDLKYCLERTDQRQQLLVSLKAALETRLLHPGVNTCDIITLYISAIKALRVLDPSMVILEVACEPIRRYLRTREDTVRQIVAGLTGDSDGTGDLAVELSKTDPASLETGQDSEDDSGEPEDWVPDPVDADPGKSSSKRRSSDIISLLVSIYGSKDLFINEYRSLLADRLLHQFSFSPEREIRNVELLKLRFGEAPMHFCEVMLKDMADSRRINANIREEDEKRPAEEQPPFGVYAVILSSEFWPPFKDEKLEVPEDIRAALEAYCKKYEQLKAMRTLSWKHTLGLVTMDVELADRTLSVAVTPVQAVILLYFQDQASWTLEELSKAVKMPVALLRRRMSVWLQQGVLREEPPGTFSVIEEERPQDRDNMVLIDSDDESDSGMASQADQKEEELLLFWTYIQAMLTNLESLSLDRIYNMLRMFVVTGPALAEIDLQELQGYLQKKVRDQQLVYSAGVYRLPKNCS
UniProt Q9Y303: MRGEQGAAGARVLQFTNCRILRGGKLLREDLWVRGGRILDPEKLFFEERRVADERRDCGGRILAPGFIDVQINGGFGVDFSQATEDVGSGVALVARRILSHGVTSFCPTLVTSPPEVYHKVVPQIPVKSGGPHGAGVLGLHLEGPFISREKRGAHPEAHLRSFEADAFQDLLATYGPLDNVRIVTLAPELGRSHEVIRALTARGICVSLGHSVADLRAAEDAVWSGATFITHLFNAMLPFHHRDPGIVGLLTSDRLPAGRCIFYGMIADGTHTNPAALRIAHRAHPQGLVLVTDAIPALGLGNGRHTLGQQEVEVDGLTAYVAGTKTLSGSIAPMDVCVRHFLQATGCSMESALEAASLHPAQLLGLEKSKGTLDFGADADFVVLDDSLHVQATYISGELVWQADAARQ
UniProt Q9Y673: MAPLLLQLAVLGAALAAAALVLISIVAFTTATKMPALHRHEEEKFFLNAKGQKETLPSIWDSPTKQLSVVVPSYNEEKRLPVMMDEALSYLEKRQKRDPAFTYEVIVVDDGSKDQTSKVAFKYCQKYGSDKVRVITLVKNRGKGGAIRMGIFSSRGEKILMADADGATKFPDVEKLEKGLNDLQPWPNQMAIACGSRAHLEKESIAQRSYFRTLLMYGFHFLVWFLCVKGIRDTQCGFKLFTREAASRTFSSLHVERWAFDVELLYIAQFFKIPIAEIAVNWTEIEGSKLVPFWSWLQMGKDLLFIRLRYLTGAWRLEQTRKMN
UniProt Q3SY69: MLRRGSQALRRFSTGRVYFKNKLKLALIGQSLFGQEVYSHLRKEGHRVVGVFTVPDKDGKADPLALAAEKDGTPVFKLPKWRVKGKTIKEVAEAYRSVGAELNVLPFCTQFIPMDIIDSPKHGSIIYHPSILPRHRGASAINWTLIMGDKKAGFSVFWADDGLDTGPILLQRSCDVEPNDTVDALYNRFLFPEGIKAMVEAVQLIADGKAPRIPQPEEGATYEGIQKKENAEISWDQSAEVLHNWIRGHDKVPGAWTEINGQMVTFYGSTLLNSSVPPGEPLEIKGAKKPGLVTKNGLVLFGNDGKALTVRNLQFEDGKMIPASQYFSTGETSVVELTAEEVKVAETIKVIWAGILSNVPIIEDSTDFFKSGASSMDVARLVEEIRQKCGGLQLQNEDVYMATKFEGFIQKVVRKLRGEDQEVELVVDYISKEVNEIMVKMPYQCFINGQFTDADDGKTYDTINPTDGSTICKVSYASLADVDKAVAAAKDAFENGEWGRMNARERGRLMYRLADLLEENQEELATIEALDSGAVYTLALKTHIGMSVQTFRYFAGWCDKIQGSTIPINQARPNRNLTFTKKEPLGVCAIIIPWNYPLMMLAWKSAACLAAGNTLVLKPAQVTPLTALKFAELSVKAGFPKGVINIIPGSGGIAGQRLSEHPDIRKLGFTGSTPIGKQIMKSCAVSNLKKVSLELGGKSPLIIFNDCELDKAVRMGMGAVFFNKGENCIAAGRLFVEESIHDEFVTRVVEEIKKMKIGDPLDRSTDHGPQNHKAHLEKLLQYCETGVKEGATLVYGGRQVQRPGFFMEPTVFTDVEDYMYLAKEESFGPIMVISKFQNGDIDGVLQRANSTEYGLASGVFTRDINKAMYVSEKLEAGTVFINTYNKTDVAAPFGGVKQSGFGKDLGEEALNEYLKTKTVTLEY
UniProt Q13155: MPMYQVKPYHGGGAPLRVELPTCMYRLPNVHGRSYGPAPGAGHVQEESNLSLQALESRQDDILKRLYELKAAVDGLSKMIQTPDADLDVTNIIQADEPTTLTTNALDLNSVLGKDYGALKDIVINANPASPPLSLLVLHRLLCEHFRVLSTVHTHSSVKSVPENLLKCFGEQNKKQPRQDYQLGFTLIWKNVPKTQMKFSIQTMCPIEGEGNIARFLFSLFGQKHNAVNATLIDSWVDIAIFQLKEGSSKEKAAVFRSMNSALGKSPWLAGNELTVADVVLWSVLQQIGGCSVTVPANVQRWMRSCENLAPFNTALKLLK
UniProt Q9UJX3, 402-426: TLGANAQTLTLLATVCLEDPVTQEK

How the values were obtained:
[1] = compound: ClCC(=O)N[C@@H]1CCCc2ccccc12; test: log2 mean competition ratio of IA-DTB cysteine labelling (DMSO/compound) (log2 ratio); higher = stronger cysteine engagement by compound; conditions: treatment time: 4 h, cell line lysate: HEK293T
Description: (§1)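 IA-DTB competitive cysteine chemoproteomics in HEK293T RIPA lysate. Lysates were treated with compound 29 or 30 at 50 or 200 µM for 4 h, then IA-DTB (500 µM, 1 h), trypsin-digested, NeutrAvidin-enriched and analysed by diaPASEF. Competition ratio = intensity DMSO / intensity compound (n=4 treated, n=64 DMSO); binding: mean log2 CR ≥ 1 and p ≤ 0.05 plus QC filters. Target is the cysteine site.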

[2] = compound: ClCC(=O)N[C@H]1CCCc2ccccc12; test: as above; conditions: treatment time: 4 h, cell line lysate: HEK293T
Description: as §1

Row | Target | log2 mean competition ratio ([1]; 50 µM) | log2 mean competition ratio ([1]; 200 µM) | log2 mean competition ratio ([2]; 50 µM) | log2 mean competition ratio ([2]; 200 µM)
1 | ANKHD1 C1965 | 0.0702 | 0.265 | -0.0288 | 0.0898
2 | ADAM9 C370 (UniProt Q13443) | 0.121 | 0.345 | -0.0319 | 0.235
3 | ANKFY1 C749 (UniProt Q9P2R3) | -0.212 | 0.0968 | -0.034 | 0.0817
4 | AKAP17A C529 (UniProt Q02040) | -0.248 | 0.178 | 0.152 | 0.481
5 | ADGRL2 C148 | 0.0477 | 0.637 | -0.282 | 0.0204
6 | AGTPBP1 C769 (UniProt Q9UPW5) | -0.222 | -0.263 | 0.0883 | -0.145
7 | AKAP13 C1414 (UniProt Q12802) | -0.496 | -0.267 | 0.163 | 0.02
8 | ADAM17 C365 (UniProt P78536) | -0.0187 | 0.0787 | -0.103 | -0.00496
9 | ANAPC2 C179 (UniProt Q9UJX6) | 0.148 | -0.303 | -0.184 | -0.423
10 | AFDN C841 | -0.395 | 0.132 | 0.0526 | 0.0589
11 | ADAM15 C733 (UniProt Q13444) | 0.188 | 0.285 | 0.0854 | 0.149
12 | AMDHD2 C338 (UniProt Q9Y303) | -0.0507 | 0.0466 | -0.538 | -0.108
13 | ACIN1 C733 | -0.234 | -0.209 | -0.34 | -0.269
14 | ALG5 C236 (UniProt Q9Y673) | -0.0269 | 0.114 | 0.354 | 0.0712
15 | ALDH1L2 C707 (UniProt Q3SY69) | -0.118 | -0.249 | -0.182 | -0.0765
16 | AIMP2 C168 (UniProt Q13155) | -0.246 | 0.184 | -0.321 | 0.215
17 | ACOT1 C339 | 0.0272 | 0.219 | 0.127 | 0.115
18 | ALKBH5 C378 (UniProt Q6P6C2) | 0.184 | -0.207 | 0.0585 | -0.294
19 | AIDA C69 (UniProt Q96BJ3) | 0.162 | -0.00617 | 0.116 | 0.0498
20 | ANAPC7 C417 (UniProt Q9UJX3) | -0.416 | -0.0632 | -0.016 | -0.142
21 | ADO C239 (UniProt Q96SZ5) | -0.108 | -0.271 | 0.329 | -0.0261
22 | AKAP9 C3081 (UniProt Q99996) | 0.199 | -0.352 | 0.427 | -0.152
23 | AJUBA C338 (UniProt Q96IF1) | -0.111 | -0.198 | -0.0669 | 0.251
24 | ADRM1 C88 (UniProt Q16186) | -0.149 | -0.0344 | -0.24 | -0.113

2 records picked at random from those above:
Row | Target | log2 mean competition ratio ([1]; 50 µM) | log2 mean competition ratio ([1]; 200 µM) | log2 mean competition ratio ([2]; 50 µM) | log2 mean competition ratio ([2]; 200 µM)
18 | ALKBH5 C378 (UniProt Q6P6C2) | 0.184 | -0.207 | 0.0585 | -0.294
19 | AIDA C69 (UniProt Q96BJ3) | 0.162 | -0.00617 | 0.116 | 0.0498
